# Data reported in the supplement of paper PMC8728848.
# This is one part of the list.
# B1: SfaEH (Escherichia coli), Q1RDG5 (protein)
# chain: LLCRNNQTGQVFNSGDTSFRVNVSPVVQYDKSISVLDLSQLVSCQNEDSTGQNYDYLKILKGSGFSPALDTKTYGRLDFTSRPTGYARQLPLQFDLQVTEAFYQYGVWKPFPAKLYLYPAPGVFGKVINNGDLLATLYVNKFSTKGQEAGERNFTWRFYATNDVYIQTGTCRVSSNNVKVDLPSYPGGPVTVPLTVRCDQTQSVSYTLSGPVTGSGNTVFANTAASGSGGVGIQLSDNVGPVPAGQPRSLGQVGSSPVSLGLKASYALTGQASPTPGAVQSVINVTFSYN
# What was measured:
# Assay in all cases: glycan array binding signal (z-score within array); higher = stronger binding
# Details in all cases: glycan notation: IUPAC condensed, linker removed
# [1] = target: Gal(b1-3)GalNAc(b1-3)Gal(a1-4)Gal(b1-4)Glc
# Method in brief: (§1)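 Columns mapping to the same glycan were averaged after glycan names were converted to IUPAC-condensed notation. The data come from 3228 arrays in the Consortium for Functional Glycomics database, limited to those with an available protein sequence. Binding is reported as a within-array Z-score averaged across arrays of one protein sequence and across linkers.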
# [2] = target: Gal(b1-3)GalNAc(b1-4)Gal(b1-4)Glc
# Method in brief: as §1
# [3] = target: Gal(b1-3)GalNAc(b1-4)[Neu5Ac(a2-3)]Gal(b1-4)Glc
# Method in brief: as §1
# Gal(b1-3)GlcNAc = target: Gal(b1-3)GlcNAc
# Method in brief: as §1
# [4] = target: Gal(b1-3)GlcNAc(a1-3)Gal(b1-4)GlcNAc
# Method in brief: as §1
# [5] = target: Gal(b1-3)GlcNAc(a1-6)Gal(b1-4)GlcNAc
# Method in brief: as §1
# Gal(b1-3)GlcNAc(b1-2)Man = target: Gal(b1-3)GlcNAc(b1-2)Man
# Method in brief: as §1
# [6] = target: Gal(b1-3)GlcNAc(b1-2)Man(a1-3)[Gal(b1-3)GlcNAc(b1-2)Man(a1-6)]Man(b1-4)GlcNAc(b1-4)GlcNAc
# Method in brief: as §1
# [7] = target: Gal(b1-3)GlcNAc(b1-2)Man(a1-3)[Gal(b1-3)GlcNAc(b1-2)Man(a1-6)]Man(b1-4)GlcNAc(b1-4)[Fuc(a1-6)]GlcNAc
# Method in brief: as §1
# [8] = target: Gal(b1-3)GlcNAc(b1-2)Man(a1-3)[GlcNAc(b1-4)][Gal(b1-3)GlcNAc(b1-2)Man(a1-6)]Man(b1-4)GlcNAc(b1-4)GlcNAc
# Method in brief: as §1
# [9] = target: Gal(b1-3)GlcNAc(b1-2)[Gal(b1-3)GlcNAc(b1-6)]Man(a1-6)[Gal(b1-3)GlcNAc(b1-2)Man(a1-3)]Man(b1-4)GlcNAc(b1-4)GlcNAc
# Method in brief: as §1
# [10] = target: Gal(b1-3)GlcNAc(b1-3)Gal(b1-3)GlcNAc
# Method in brief: as §1
# [11] = target: Gal(b1-3)GlcNAc(b1-3)Gal(b1-4)Glc
# Method in brief: as §1
# [12] = target: Gal(b1-3)GlcNAc(b1-3)Gal(b1-4)GlcNAc
# Method in brief: as §1
# [13] = target: Gal(b1-3)GlcNAc(b1-3)Gal(b1-4)GlcNAc(b1-2)Man(a1-3)[Gal(b1-3)GlcNAc(b1-3)Gal(b1-4)GlcNAc(b1-2)Man(a1-6)]Man(b1-4)GlcNAc(b1-4)GlcNAc
# Method in brief: as §1
# [14] = target: Gal(b1-3)GlcNAc(b1-3)Gal(b1-4)GlcNAc(b1-2)[Gal(b1-3)GlcNAc(b1-3)Gal(b1-4)GlcNAc(b1-6)]Man(a1-6)[Gal(b1-3)GlcNAc(b1-3)Gal(b1-4)GlcNAc(b1-2)Man(a1-3)]Man(b1-4)GlcNAc(b1-4)[Fuc(a1-6)]GlcNAc
# Method in brief: as §1
# [15] = target: Gal(b1-3)GlcNAc(b1-3)Gal(b1-4)GlcNAc(b1-3)Gal(b1-4)GlcNAc(b1-2)[Gal(b1-3)GlcNAc(b1-3)Gal(b1-4)GlcNAc(b1-3)Gal(b1-4)GlcNAc(b1-6)]Man(a1-6)[Gal(b1-3)GlcNAc(b1-3)Gal(b1-4)GlcNAc(b1-3)Gal(b1-4)GlcNAc(b1-2)Man(a1-3)]Man(b1-4)GlcNAc(b1-4)[Fuc(a1-6)]GlcNAc
# Method in brief: as §1
# [16] = target: Gal(b1-3)GlcNAc(b1-3)Gal(b1-4)GlcNAc(b1-6)[Gal(b1-3)GlcNAc(b1-3)]Gal(b1-4)Glc
# Method in brief: as §1
# [17] = target: Gal(b1-3)GlcNAc(b1-3)Gal(b1-4)[Fuc(a1-3)]GlcNAc(b1-6)[Gal(b1-3)GlcNAc(b1-3)]Gal(b1-4)Glc
# Method in brief: as §1
# [18] = target: Gal(b1-3)GlcNAc(b1-3)GalNAc
# Method in brief: as §1
# [19] = target: Gal(b1-3)GlcNAc(b1-6)Gal(b1-4)GlcNAc
# Method in brief: as §1
# [20] = target: Gal(b1-3)GlcNAc(b1-6)GalNAc
# Method in brief: as §1
# [21] = target: Gal(b1-3)GlcNAc(b1-6)[Gal(b1-3)]GalNAc
# Method in brief: as §1
# Gal(b1-3)GlcNAc6S = target: Gal(b1-3)GlcNAc6S
# Method in brief: as §1
# [22] = target: Gal(b1-3)[Fuc(a1-4)]GlcNAc
# Method in brief: as §1
# [23] = target: Gal(b1-3)[Fuc(a1-4)]GlcNAc(b1-2)Man
# Method in brief: as §1
# [24] = target: Gal(b1-3)[Fuc(a1-4)]GlcNAc(b1-2)Man(a1-3)[Gal(b1-3)[Fuc(a1-4)]GlcNAc(b1-2)Man(a1-6)]Man(b1-4)GlcNAc(b1-4)[Fuc(a1-6)]GlcNAc
# Method in brief: as §1
# [25] = target: Gal(b1-3)[Fuc(a1-4)]GlcNAc(b1-3)Gal(b1-3)[Fuc(a1-4)]GlcNAc
# Method in brief: as §1
# [26] = target: Gal(b1-3)[Fuc(a1-4)]GlcNAc(b1-3)Gal(b1-4)GlcNAc
# Method in brief: as §1
# [27] = target: Gal(b1-3)[Fuc(a1-4)]GlcNAc(b1-3)Gal(b1-4)[Fuc(a1-3)]GlcNAc
# Method in brief: as §1
# [28] = target: Gal(b1-3)[Fuc(a1-4)]GlcNAc(b1-6)GalNAc
# Method in brief: as §1
# [29] = target: Gal(b1-3)[GlcNAc(b1-6)]GalNAc
# Method in brief: as §1
# [30] = target: Gal(b1-3)[Neu5Ac(a2-6)]GalNAc
# Method in brief: as §1
# [31] = target: Gal(b1-3)[Neu5Ac(a2-6)]GlcNAc(b1-4)Gal(b1-4)Glc
# Method in brief: as §1
# [32] = target: Gal(b1-3)[Neu5Ac(b2-6)]GalNAc
# Method in brief: as §1
# Gal(b1-4)Gal = target: Gal(b1-4)Gal
# Method in brief: as §1
# [33] = target: Gal(b1-4)GalNAc(a1-3)[Fuc(a1-2)]Gal(b1-4)GlcNAc
# Method in brief: as §1
# [34] = target: Gal(b1-4)GalNAc(b1-3)[Fuc(a1-2)]Gal(b1-4)GlcNAc
# Method in brief: as §1
binder,measurement,setting,value
B1,glycan array binding signal (z-score),[1],-0.647
same,glycan array binding signal (z-score),[2],-0.201
same,glycan array binding signal (z-score),[3],-0.012
same,glycan array binding signal (z-score),Gal(b1-3)GlcNAc,-0.752
same,glycan array binding signal (z-score),[4],-0.23
same,glycan array binding signal (z-score),[5],0.644
same,glycan array binding signal (z-score),Gal(b1-3)GlcNAc(b1-2)Man,-0.597
same,glycan array binding signal (z-score),[6],-0.033
same,glycan array binding signal (z-score),[7],-0.377
same,glycan array binding signal (z-score),[8],0.032
same,glycan array binding signal (z-score),[9],-0.525
same,glycan array binding signal (z-score),[10],0.174
same,glycan array binding signal (z-score),[11],-0.847
same,glycan array binding signal (z-score),[12],-0.895
same,glycan array binding signal (z-score),[13],-0.802
same,glycan array binding signal (z-score),[14],0.27
same,glycan array binding signal (z-score),[15],3.4
same,glycan array binding signal (z-score),[16],-0.77
same,glycan array binding signal (z-score),[17],0.378
same,glycan array binding signal (z-score),[18],0.787
same,glycan array binding signal (z-score),[19],0.147
same,glycan array binding signal (z-score),[20],-0.438
same,glycan array binding signal (z-score),[21],1.44
same,glycan array binding signal (z-score),Gal(b1-3)GlcNAc6S,0.226
same,glycan array binding signal (z-score),[22],-0.004
same,glycan array binding signal (z-score),[23],1.04
same,glycan array binding signal (z-score),[24],0.032
same,glycan array binding signal (z-score),[25],0.274
same,glycan array binding signal (z-score),[26],-0.081
same,glycan array binding signal (z-score),[27],0.574
same,glycan array binding signal (z-score),[28],-0.677
same,glycan array binding signal (z-score),[29],-0.022
same,glycan array binding signal (z-score),[30],-0.563
same,glycan array binding signal (z-score),[31],-0.638
same,glycan array binding signal (z-score),[32],-0.841
same,glycan array binding signal (z-score),Gal(b1-4)Gal,-0.186
same,glycan array binding signal (z-score),[33],-0.343
same,glycan array binding signal (z-score),[34],0.535

# As a short view, part of the list above:
binder,measurement,setting,value
B1,glycan array binding signal (z-score),[4],-0.23
same,glycan array binding signal (z-score),[5],0.644
